Measured values from US20230190883A1 (Bessor Pharma, LLC, priority 2020, published 2023).
One purity is given for all peptides; the source may state it once.

Test: general procedure: Fmoc solid-phase peptide synthesis; ChemMatrix Rink Amide resin; Cl-HOBt / diisopropylcarbodiimide (DCI)
Conditions: whole synthesis

Substance: [Ala^220]-Ac-Renalase A (205-240)-CONH2 (KIDVPWAGQYITSNPAIRFVSIDNKKRNIESSEIGP; N-acetyl, C-terminal amide; Based on homo sapiens sequence)
- final HPLC purity: >95%
